Test results published in the supplement of paper PMC6078165.
Values are relative to the signal before dosing, not to a vehicle control; the signal also falls without drug.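 Labels refer to human fibroblasts, largely primary: uterine (C12385, HUF), lung (H6013), bone (Hs27A), adrenal (HADF), skin (WS1), plus mammary HMF and breast cancer-associated Hs343T. Cancer lines are basal-like or mesenchymal-like triple-negative breast cancer. The paper counts as hits responses shifting over 3x the replicate standard deviation. The tissue of the other fibroblasts is not given here.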

Test system: MDAMB468
Assay: relative JC-1 red fluorescence (viability) vs pre-drug, coculture with fibroblast (fraction); higher = more viable cancer cells
Procedure: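 JC-1 labelled TNBC cells cocultured 1:1 (1,500 cells each) with CellTrace Violet stained primary or stromal fibroblasts in 384-well plates in FluoroBrite medium, treated with one of 42 anticancer drugs at 0.1, 1, 10 or 100 uM. JC-1 red fluorescence (mitochondrial integrity in cancer cells only) was read by plate reader every 8 h for 72 h. Values are normalised to each well's pre-drug value. The stock of one drug was tenfold lower, so its dose labels may be too high.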

Nc1ccn([C@@H]2O[C@H](CO)[C@@H](O)C2(F)F)c(=O)n1 [Gemcitabine]
relative JC-1 red fluorescence
Conditions | 8 h | 16 h | 24 h | 32 h | 40 h | 48 h | 56 h | 64 h | 72 h
0.1 µM, coculture fibroblast: C12385 | 0.894 | 0.823 | 0.804 | 0.751 | 0.719 | 0.722 | 0.686 | 0.673 | 0.677
0.1 µM, coculture fibroblast: H6013 | 0.89 | 0.793 | 0.763 | 0.74268 | 0.704 | 0.714 | 0.683 | 0.677 | 0.622
0.1 µM, coculture fibroblast: H6019 | 0.81 | 0.77 | 0.735 | 0.675 | 0.626 | 0.609 | 0.56 | 0.529 | 0.504
0.1 µM, coculture fibroblast: H6076 | 0.952 | 0.935 | 0.882 | 0.888 | 0.817 | 0.805 | 0.757 | 0.734 | 0.778
0.1 µM, coculture fibroblast: H6231 | 0.8226 | 0.864 | 0.884 | 0.807 | 0.766 | 0.728 | 0.634 | 0.599 | 0.565
0.1 µM, coculture fibroblast: HADF | 0.91 | 0.828 | 0.785 | 0.76 | 0.683 | 0.674 | 0.6168 | 0.597 | 0.522
0.1 µM, coculture fibroblast: HCFa | 0.871 | 0.7861 | 0.738 | 0.676 | 0.592 | 0.579 | 0.519 | 0.476 | 0.417
0.1 µM, coculture fibroblast: HCPF | 0.8682 | 0.884 | 0.916 | 0.881 | 0.82 | 0.753 | 0.654 | 0.612 | 0.547
0.1 µM, coculture fibroblast: HHSteC | 0.888 | 0.803 | 0.748 | 0.696 | 0.641 | 0.644 | 0.564 | 0.53 | 0.475
0.1 µM, coculture fibroblast: HMF | 0.8588 | 0.77 | 0.903 | 0.854 | 0.795 | 0.774 | 0.708 | 0.675 | 0.622
0.1 µM, coculture fibroblast: HPFa | 0.945 | 0.916 | 0.843 | 0.786 | 0.755 | 0.753 | 0.7 | 0.676 | 0.595
0.1 µM, coculture fibroblast: HUF | 0.925 | 0.834 | 0.763 | 0.6884 | 0.6335 | 0.595 | 0.528 | 0.487 | 0.45
0.1 µM, coculture fibroblast: Hs5 | 0.897 | 0.887 | 0.9 | 0.885 | 0.804 | 0.753 | 0.703 | 0.668 | 0.6944
0.1 µM, coculture fibroblast: Hs27A | 0.859 | 0.795 | 0.757 | 0.734 | 0.678 | 0.67 | 0.632 | 0.634 | 0.583
0.1 µM, coculture fibroblast: Hs343T | 0.9184 | 0.963 | 0.885 | 0.853 | 0.781 | 0.751 | 0.681 | 0.6513 | 0.628
0.1 µM, coculture fibroblast: WS1 | 0.875 | 0.7436 | 0.7062 | 0.635 | 0.576 | 0.5355 | 0.498 | 0.476 | 0.473
1 µM, coculture fibroblast: C12385 | 0.8717 | 0.7679 | 0.7767 | 0.7256 | 0.6843 | 0.6815 | 0.6264 | 0.6086 | 0.5958
1 µM, coculture fibroblast: H6013 | 0.8514 | 0.838 | 0.776 | 0.74 | 0.708 | 0.709 | 0.672 | 0.67 | 0.609
1 µM, coculture fibroblast: H6019 | 0.829 | 0.774 | 0.712 | 0.638 | 0.583 | 0.55 | 0.491 | 0.453 | 0.424
1 µM, coculture fibroblast: H6076 | 0.9534 | 0.898 | 0.818 | 0.804 | 0.722 | 0.694 | 0.63 | 0.609 | 0.661
1 µM, coculture fibroblast: H6231 | 0.832 | 0.902 | 0.766 | 0.762 | 0.686 | 0.663 | 0.6 | 0.579 | 0.574
1 µM, coculture fibroblast: HADF | 0.9317 | 0.84 | 0.805 | 0.7868 | 0.755 | 0.755 | 0.702 | 0.692 | 0.628
1 µM, coculture fibroblast: HCFa | 0.834 | 0.795 | 0.741 | 0.724 | 0.671 | 0.662 | 0.604 | 0.569 | 0.5
1 µM, coculture fibroblast: HCPF | 0.873 | 0.882 | 0.804 | 0.807 | 0.727 | 0.69 | 0.642 | 0.608 | 0.593
1 µM, coculture fibroblast: HHSteC | 0.913 | 0.8321 | 0.7897 | 0.7504 | 0.718 | 0.716 | 0.654 | 0.639 | 0.568
1 µM, coculture fibroblast: HMF | 0.849 | 0.89103 | 0.798 | 0.762 | 0.68 | 0.66 | 0.6 | 0.575 | 0.547
1 µM, coculture fibroblast: HPFa | 0.904 | 0.832 | 0.778 | 0.716 | 0.681 | 0.661 | 0.59 | 0.562 | 0.484
1 µM, coculture fibroblast: HUF | 0.894 | 0.803 | 0.7443 | 0.6785 | 0.621 | 0.587 | 0.519 | 0.498 | 0.477
1 µM, coculture fibroblast: Hs5 | 0.812 | 0.924 | 0.856 | 0.808 | 0.717 | 0.672 | 0.6 | 0.554 | 0.568
1 µM, coculture fibroblast: Hs27A | 0.87 | 0.8253 | 0.783 | 0.784 | 0.753 | 0.748 | 0.714 | 0.71 | 0.6469
1 µM, coculture fibroblast: Hs343T | 0.884 | 0.925 | 0.8466 | 0.804 | 0.721 | 0.674 | 0.583 | 0.534 | 0.502
1 µM, coculture fibroblast: WS1 | 0.877 | 0.7778 | 0.731 | 0.654 | 0.597 | 0.55 | 0.512 | 0.483 | 0.472
